{"source": "ChEMBL document CHEMBL5303573", "about": "“Mapping human microbiome drug metabolism by gut bacteria and their genes” (Nature, 2019)", "test": "The drug is tested on Escherichia coli strain: BW25113 for biotransformation. The drug concentrations were measured before and after a 12-h incubation by liquid-chromatography-coupled mass spectrometry (LC–MS)", "settings": "2 µM"}
{"compound": "Nc1nc2ccc(OC(F)(F)F)cc2s1", "note": "[RILUZOLE]", "values": [{"measurement": "Bacterial Biotransformation", "value": "Compound NOT metabolized"}]}
